These are yes or no findings as the source states them, for the method shown. Some results given as binding are weak or reduced against the parent protein; the word gives no strength. Values belong to the binder of their own block, whether it stands above or below them.
Columns and labels:
[1] = target: T1, regulatory-associated protein of mTOR (RAPTOR) (UniProt Q8N122 1-1335); assay: fluorescence polarisation; fluorescence anisotropy, competition: unlabeled TOS peptide against FITC-labeled peptide for RAPTOR; both purified
T1 construct: RAPTOR, regulatory-associated protein of mTOR; purified protein; Construct, host and tags are in SI Appendix, Material and Methods; In the cryo-EM rows RAPTOR stood as a subunit of mTORC1; source: purified

[2] = target: T1, regulatory-associated protein of mTOR …; assay: cryo-EM structure; single-particle analysis of mTORC1 in complex with the synthetic LST2 TOS peptide; 3.27 Å for the TOS-binding RAPTOR region; both purified
[3] = target: T1, regulatory-associated protein of mTOR …; assay: fluorescence polarisation; fluorescence anisotropy; purified RAPTOR with N-terminally FITC-labeled synthetic LST2 TOS peptides; N = 3; both purified
[4] = target: T1, regulatory-associated protein of mTOR …; assay: cryo-EM structure; single-particle analysis of mTORC1 in complex with full-length LST2; overall refinement 4.02 Å; both purified
[5] = target: T1, regulatory-associated protein of mTOR …; assay: co-IP; coimmunoprecipitation with purified RAPTOR and purified full-length LST2 (WT or F401A); blot quantified, N = 3; both purified

binding [1]: binds
binding [2]: binds
Binder: DEEERVFFMDDVE (peptide, UniProt Q9HCC9 395-407) [unlabeled LST2 TOS peptide]

binding [1]: binds
Binder: DEEERVFFMDDVE (peptide, UniProt Q9HCC9 395-407, FITC on the N-terminus) [FITC-labeled LST2 TOS peptide including flanking residues (amino acids 395 to 407)]

binding [3]: no binding
Binder: DEEERVAFMDDVE (peptide, UniProt Q9HCC9 395-407, FITC on the N-terminus) [FITC-labeled LST2 TOS peptide F401A]

binding [4]: binds
binding [5]: binds
B1: full-length LST2 (lateral signal target 2 homolog), wild type (protein, UniProt Q9HCC9 1-887)
chain: MMNRFRKWLYKPKRSDPQLLARFYYADEELNQVAAELDSLDGRKDPQRCTLLVSQFRSCQDNVLNIINQIMDECIPQDRAPRDFCVKFPEEIRHDNLAGQLWFGAECLAAGSIIMNRELESMAMRPLAKELTRSLEDVRGALRDQALRDLNTYTEKMREALRHFDVLFAEFELSYVSAMVPVKSPREYYVQQEVIVLFCETVERALDFGYLTQDMIDDYEPALMFSIPRLAIVCGLVVYADGPLNLDRKVEDMSELFRPFHTLLRKIRDLLQTLTEEELHTLERNLCISQDVEFPIRADVQGPAALAPALSAPLPPEGPLSAKAKDPDAELACSMQYDDQELEQLSRMVHRAGDEMSSLLSPPIACQSPAHRPGAEGSPGGEASPGRPRLRSGSDEEERVFFMDDVEGTAEALARPESPAGPFGWAGSTWADPQEKGQGGPGGAAGISLPASEKEEDLSNNNLEAEGTDGASLAGTSSCSCLDSRLHLDGWEVGADDAETAEMIAHRTGGMKLSATVIFNPKSPTSLDSAVATQEAASEPVAEGMDGGPHKLSTGATNCLLHSCVCCGSCGDSREDVVERLREKCSPGGVIGASYAAGLAKASDRAPERQEEAPPPSEDASNGREPKAPTSDKCLPHTSGSQVDTASGLQGEAGVAGQQEPEARELHAGSPSAHEAPQALSGSSSSTAGSCSSDKMGPEAAPAATHAAPQATREKIRSRFHGSHDLIHRLFVCISGVADQLQTNYASDLRSILKTLFEVMATKPETDDKEKLRKVTQTLRSAALEDCALCQETLSSSELAAKTRDGDFEDPPEWVPDEACGFCTACKAPFTVIRRKHHCRSCGKIFCSRCSSHSAPLPRYGQVKPVRVCTHCYMFHVTPFYSDKAGL

— publication PMC11348030, “mTORC1 phosphorylates and stabilizes LST2 to negatively regulate EGFR” (Proceedings of the National Academy of Sciences of the …, 2024)
